Reference: paper PMC3539332

Molecular target: T1, GST-Arfrp1 (Q79L), dominant active form, GTPγS-loaded (UniProt Q13795)
T1 sequence: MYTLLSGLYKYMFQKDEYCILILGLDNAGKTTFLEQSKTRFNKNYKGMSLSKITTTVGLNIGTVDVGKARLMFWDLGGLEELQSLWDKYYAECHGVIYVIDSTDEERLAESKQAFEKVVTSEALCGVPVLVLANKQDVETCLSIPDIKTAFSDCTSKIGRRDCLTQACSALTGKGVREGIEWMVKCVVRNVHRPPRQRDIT
Assay: affinity purification with mass spectrometry; GST-Arfrp1 (50 μg) on glutathione beads loaded with GDP or GTPγS; bovine brain cytosol, 4°C overnight, 20 mM Hepes pH 7.4, 100 mM KCl, 5 mM MgCl2, 0.1% TX100; washed with 500 mM KCl; eluate on SDS-PAGE, silver stained, gel slices to mass spectrometry; only the target purified

| binding | Substance |
| --- | --- |
| binds | serine/threonine-protein kinase (A-Raf) (enzyme) |
| binds | γ1-adaptin |

No constants are given. Whether binding was seen depends on the method and setting. In cells and extracts the contact can be indirect. Here binding means that the protein was enriched with, or labelled near, the bait; the list need not be complete. Sequences can lack the tags named with a protein.
